Results from publication doi:10.1101/2024.09.12.612777 (bioRxiv, 2024).
These are yes or no findings as the source states them, for the method shown. Binding seen in cells or lysates may run through a third protein. Here binding means that the protein was enriched with, or labelled near, the bait; the list need not be complete.

T1: ALFIN-LIKE 1 (AL1) (Arabidopsis thaliana) (UniProt Q9FFF5)
T1 sequence: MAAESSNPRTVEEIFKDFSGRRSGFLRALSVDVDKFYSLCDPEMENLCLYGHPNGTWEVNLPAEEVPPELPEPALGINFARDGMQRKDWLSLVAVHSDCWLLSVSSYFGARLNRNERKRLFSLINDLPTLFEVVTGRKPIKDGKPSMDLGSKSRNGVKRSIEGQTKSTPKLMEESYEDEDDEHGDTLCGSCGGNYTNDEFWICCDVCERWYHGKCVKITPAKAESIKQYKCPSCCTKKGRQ

T2: ALFIN-LIKE 2 (AL2) (Arabidopsis thaliana) (UniProt Q9SRM4)
T2 sequence: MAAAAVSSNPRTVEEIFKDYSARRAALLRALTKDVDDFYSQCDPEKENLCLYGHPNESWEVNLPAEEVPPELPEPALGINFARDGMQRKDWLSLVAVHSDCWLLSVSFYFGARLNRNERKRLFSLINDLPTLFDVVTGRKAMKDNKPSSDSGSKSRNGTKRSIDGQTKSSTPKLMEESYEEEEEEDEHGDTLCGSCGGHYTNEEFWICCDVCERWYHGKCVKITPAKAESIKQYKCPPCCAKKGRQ

T3: ALFIN-LIKE 3 (AL3) (Arabidopsis thaliana) (UniProt Q9M2B4)
T3 sequence: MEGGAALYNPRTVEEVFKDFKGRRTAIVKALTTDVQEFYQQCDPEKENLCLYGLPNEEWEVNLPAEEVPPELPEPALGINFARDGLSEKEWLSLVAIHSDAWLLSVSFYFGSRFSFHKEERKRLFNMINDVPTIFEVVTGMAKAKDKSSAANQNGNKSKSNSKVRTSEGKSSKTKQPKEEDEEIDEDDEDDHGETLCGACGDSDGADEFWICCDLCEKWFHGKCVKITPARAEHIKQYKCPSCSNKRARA

T4: ALFIN-LIKE 4 (AL4) (Arabidopsis thaliana) (UniProt O81488)
T4 sequence: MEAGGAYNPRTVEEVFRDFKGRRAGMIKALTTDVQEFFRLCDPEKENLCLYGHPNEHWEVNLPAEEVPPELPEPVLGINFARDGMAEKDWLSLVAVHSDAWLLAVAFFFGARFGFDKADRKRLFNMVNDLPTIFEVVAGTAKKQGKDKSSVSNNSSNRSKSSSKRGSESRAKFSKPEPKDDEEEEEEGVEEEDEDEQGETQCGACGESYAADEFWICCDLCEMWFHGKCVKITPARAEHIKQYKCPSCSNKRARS

T5: ALFIN-LIKE 5 (AL5) (Arabidopsis thaliana) (UniProt Q5XEM9)
T5 sequence: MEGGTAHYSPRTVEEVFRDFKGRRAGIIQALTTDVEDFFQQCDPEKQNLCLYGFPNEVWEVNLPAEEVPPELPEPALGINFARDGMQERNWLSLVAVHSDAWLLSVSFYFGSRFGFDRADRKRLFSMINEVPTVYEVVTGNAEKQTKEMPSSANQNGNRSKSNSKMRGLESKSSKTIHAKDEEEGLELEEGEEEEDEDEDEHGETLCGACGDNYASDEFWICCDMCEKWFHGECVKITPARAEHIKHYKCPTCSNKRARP

T6: ALFIN-LIKE 6 (AL6) (Arabidopsis thaliana) (UniProt Q8S8M9)
T6 sequence: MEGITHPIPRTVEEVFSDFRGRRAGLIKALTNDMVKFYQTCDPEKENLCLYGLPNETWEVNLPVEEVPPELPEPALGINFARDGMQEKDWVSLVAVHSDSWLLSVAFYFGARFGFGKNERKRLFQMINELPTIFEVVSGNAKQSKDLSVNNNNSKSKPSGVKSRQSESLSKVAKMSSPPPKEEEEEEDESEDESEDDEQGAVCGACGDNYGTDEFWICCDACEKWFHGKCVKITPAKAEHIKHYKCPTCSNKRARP

T7: ALFIN-LIKE 7 (AL7) (Arabidopsis thaliana) (UniProt Q8LA16)
T7 sequence: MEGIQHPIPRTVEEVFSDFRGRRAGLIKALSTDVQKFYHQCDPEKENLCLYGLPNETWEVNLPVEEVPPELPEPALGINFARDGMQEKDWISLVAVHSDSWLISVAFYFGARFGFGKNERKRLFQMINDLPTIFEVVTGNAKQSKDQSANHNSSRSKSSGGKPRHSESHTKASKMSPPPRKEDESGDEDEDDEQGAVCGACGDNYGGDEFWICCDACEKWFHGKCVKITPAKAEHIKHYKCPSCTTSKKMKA


Key:
Assay in all cases: affinity purification with mass spectrometry
[1] = molecular target: T1, ALFIN-LIKE 1 (AL1) (Arabidopsis thaliana)
[2] = molecular target: T2, ALFIN-LIKE 2 (AL2) (Arabidopsis thaliana)
[3] = molecular target: T3, ALFIN-LIKE 3 (AL3) (Arabidopsis thaliana)
[4] = molecular target: T4, ALFIN-LIKE 4 (AL4) (Arabidopsis thaliana)
[5] = molecular target: T5, ALFIN-LIKE 5 (AL5) (Arabidopsis thaliana)
[6] = molecular target: T6, ALFIN-LIKE 6 (AL6) (Arabidopsis thaliana)
[7] = molecular target: T7, ALFIN-LIKE 7 (AL7) (Arabidopsis thaliana)

Row | binding [1] | binding [2] | binding [3] | binding [4] | binding [5] | binding [6] | binding [7] | Binder
1 | binds | binds | binds | binds | binds | binds |  | ALFIN-LIKE 7 (AL7) (protein, UniProt Q8LA16 1-252) MEGIQHPIPRTVEEVFSDFRGRRAGLIKALSTDVQKFYHQCDPEKENLCLYGLPNETWEVNLPVEEVPPELPEPALGINFARDGMQEKDWISLVAVHSDSWLISVAFYFGARFGFGKNERKRLFQMINDLPTIFEVVTGNAKQSKDQSANHNSSRSKSSGGKPRHSESHTKASKMSPPPRKEDESGDEDEDDEQGAVCGACGDNYGGDEFWICCDACEKWFHGKCVKITPAKAEHIKHYKCPSCTTSKKMKA
2 | binds | binds | binds | binds | binds |  | binds | ALFIN-LIKE 6 (AL6) (protein, UniProt Q8S8M9 1-256) MEGITHPIPRTVEEVFSDFRGRRAGLIKALTNDMVKFYQTCDPEKENLCLYGLPNETWEVNLPVEEVPPELPEPALGINFARDGMQEKDWVSLVAVHSDSWLLSVAFYFGARFGFGKNERKRLFQMINELPTIFEVVSGNAKQSKDLSVNNNNSKSKPSGVKSRQSESLSKVAKMSSPPPKEEEEEEDESEDESEDDEQGAVCGACGDNYGTDEFWICCDACEKWFHGKCVKITPAKAEHIKHYKCPTCSNKRARP
3 | binds | binds | binds | binds |  | binds | binds | ALFIN-LIKE 5 (AL5) (protein, UniProt Q5XEM9 1-260) MEGGTAHYSPRTVEEVFRDFKGRRAGIIQALTTDVEDFFQQCDPEKQNLCLYGFPNEVWEVNLPAEEVPPELPEPALGINFARDGMQERNWLSLVAVHSDAWLLSVSFYFGSRFGFDRADRKRLFSMINEVPTVYEVVTGNAEKQTKEMPSSANQNGNRSKSNSKMRGLESKSSKTIHAKDEEEGLELEEGEEEEDEDEDEHGETLCGACGDNYASDEFWICCDMCEKWFHGECVKITPARAEHIKHYKCPTCSNKRARP
4 |  | binds | binds | binds | binds | binds | binds | ALFIN-LIKE 1 (AL1) (protein, UniProt Q9FFF5 1-241) MAAESSNPRTVEEIFKDFSGRRSGFLRALSVDVDKFYSLCDPEMENLCLYGHPNGTWEVNLPAEEVPPELPEPALGINFARDGMQRKDWLSLVAVHSDCWLLSVSSYFGARLNRNERKRLFSLINDLPTLFEVVTGRKPIKDGKPSMDLGSKSRNGVKRSIEGQTKSTPKLMEESYEDEDDEHGDTLCGSCGGNYTNDEFWICCDVCERWYHGKCVKITPAKAESIKQYKCPSCCTKKGRQ
5 | binds | binds |  | binds | binds | binds | binds | ALFIN-LIKE 3 (AL3) (protein, UniProt Q9M2B4 1-250) MEGGAALYNPRTVEEVFKDFKGRRTAIVKALTTDVQEFYQQCDPEKENLCLYGLPNEEWEVNLPAEEVPPELPEPALGINFARDGLSEKEWLSLVAIHSDAWLLSVSFYFGSRFSFHKEERKRLFNMINDVPTIFEVVTGMAKAKDKSSAANQNGNKSKSNSKVRTSEGKSSKTKQPKEEDEEIDEDDEDDHGETLCGACGDSDGADEFWICCDLCEKWFHGKCVKITPARAEHIKQYKCPSCSNKRARA
6 | binds |  | binds | binds | binds | binds | binds | AL2 (recombinant, pull-down) (natural protein, Arabidopsis thaliana, UniProt Q9SRM4 1-246, looked up) MAAAAVSSNPRTVEEIFKDYSARRAALLRALTKDVDDFYSQCDPEKENLCLYGHPNESWEVNLPAEEVPPELPEPALGINFARDGMQRKDWLSLVAVHSDCWLLSVSFYFGARLNRNERKRLFSLINDLPTLFDVVTGRKAMKDNKPSSDSGSKSRNGTKRSIDGQTKSSTPKLMEESYEEEEEEDEHGDTLCGSCGGHYTNEEFWICCDVCERWYHGKCVKITPAKAESIKQYKCPPCCAKKGRQ
7 | binds | binds | binds |  | binds | binds | binds | ALFIN-LIKE 4 (AL4) (protein, UniProt O81488 1-255) MEAGGAYNPRTVEEVFRDFKGRRAGMIKALTTDVQEFFRLCDPEKENLCLYGHPNEHWEVNLPAEEVPPELPEPVLGINFARDGMAEKDWLSLVAVHSDAWLLAVAFFFGARFGFDKADRKRLFNMVNDLPTIFEVVAGTAKKQGKDKSSVSNNSSNRSKSSSKRGSESRAKFSKPEPKDDEEEEEEGVEEEDEDEQGETQCGACGESYAADEFWICCDLCEMWFHGKCVKITPARAEHIKQYKCPSCSNKRARS
